The supplement of paper PMC6411743
± gives the standard deviation of the averaged measurements. The list shows a part of the results, in another mix than the full data.

Protein sequences, listed by entry. Tags and fused reporters are not part of them. Lines headed by an entry give the natural chain unless they say otherwise; changes in a name come on top.
UniProt Q9NQG5: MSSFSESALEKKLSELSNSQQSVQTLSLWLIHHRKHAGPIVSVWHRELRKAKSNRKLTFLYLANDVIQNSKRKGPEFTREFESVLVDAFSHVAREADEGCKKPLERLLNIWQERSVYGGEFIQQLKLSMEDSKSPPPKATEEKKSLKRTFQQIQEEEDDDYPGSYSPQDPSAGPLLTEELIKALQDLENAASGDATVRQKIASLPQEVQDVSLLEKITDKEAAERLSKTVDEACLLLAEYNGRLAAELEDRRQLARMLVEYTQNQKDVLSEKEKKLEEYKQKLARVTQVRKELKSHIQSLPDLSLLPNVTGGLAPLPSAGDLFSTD
UniProt Q9NVG8: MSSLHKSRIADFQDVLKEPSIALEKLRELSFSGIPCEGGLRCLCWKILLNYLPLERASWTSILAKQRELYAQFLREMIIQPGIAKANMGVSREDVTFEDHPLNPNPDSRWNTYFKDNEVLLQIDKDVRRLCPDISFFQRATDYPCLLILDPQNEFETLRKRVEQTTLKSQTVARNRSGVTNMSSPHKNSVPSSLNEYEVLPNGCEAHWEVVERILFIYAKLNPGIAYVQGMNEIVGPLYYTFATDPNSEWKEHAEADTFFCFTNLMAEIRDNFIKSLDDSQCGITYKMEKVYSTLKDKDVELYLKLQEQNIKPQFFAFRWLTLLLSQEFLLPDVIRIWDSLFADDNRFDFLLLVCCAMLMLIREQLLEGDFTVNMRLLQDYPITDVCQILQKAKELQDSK
UniProt Q9NZ63: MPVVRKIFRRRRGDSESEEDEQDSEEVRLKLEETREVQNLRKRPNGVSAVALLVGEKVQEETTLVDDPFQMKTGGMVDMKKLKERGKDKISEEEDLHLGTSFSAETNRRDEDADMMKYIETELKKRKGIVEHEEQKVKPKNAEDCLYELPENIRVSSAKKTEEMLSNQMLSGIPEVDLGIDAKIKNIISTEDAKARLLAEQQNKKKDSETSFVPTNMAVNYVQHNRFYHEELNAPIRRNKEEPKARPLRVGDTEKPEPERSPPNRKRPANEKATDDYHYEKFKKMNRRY
UniProt Q9NXC5: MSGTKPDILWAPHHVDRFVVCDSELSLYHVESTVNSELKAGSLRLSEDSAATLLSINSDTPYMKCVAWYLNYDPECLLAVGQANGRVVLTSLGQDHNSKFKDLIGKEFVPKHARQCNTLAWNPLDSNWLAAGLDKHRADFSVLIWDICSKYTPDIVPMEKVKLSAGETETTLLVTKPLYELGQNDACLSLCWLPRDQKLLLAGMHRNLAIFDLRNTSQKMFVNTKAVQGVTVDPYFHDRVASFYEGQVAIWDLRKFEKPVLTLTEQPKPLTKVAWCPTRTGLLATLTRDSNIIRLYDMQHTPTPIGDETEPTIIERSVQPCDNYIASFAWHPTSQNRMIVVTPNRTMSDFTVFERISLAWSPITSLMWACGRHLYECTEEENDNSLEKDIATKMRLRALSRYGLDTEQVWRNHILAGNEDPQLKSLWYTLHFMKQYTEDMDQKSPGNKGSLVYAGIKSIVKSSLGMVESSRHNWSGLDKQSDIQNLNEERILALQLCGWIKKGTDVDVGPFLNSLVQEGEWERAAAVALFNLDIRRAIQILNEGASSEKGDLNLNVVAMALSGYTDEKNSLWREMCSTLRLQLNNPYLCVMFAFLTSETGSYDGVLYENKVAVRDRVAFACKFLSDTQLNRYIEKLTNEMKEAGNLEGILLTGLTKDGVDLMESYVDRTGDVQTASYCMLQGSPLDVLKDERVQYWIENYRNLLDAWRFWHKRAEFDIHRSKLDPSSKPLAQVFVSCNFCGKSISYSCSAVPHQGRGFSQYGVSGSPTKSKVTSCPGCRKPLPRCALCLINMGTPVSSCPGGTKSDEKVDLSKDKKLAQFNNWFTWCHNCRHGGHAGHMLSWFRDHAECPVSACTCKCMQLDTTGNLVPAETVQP
UniProt Q9P0R6: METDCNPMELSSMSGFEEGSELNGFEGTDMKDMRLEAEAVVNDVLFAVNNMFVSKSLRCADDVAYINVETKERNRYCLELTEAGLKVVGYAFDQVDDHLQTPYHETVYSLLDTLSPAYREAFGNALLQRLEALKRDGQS
UniProt Q9NVE7: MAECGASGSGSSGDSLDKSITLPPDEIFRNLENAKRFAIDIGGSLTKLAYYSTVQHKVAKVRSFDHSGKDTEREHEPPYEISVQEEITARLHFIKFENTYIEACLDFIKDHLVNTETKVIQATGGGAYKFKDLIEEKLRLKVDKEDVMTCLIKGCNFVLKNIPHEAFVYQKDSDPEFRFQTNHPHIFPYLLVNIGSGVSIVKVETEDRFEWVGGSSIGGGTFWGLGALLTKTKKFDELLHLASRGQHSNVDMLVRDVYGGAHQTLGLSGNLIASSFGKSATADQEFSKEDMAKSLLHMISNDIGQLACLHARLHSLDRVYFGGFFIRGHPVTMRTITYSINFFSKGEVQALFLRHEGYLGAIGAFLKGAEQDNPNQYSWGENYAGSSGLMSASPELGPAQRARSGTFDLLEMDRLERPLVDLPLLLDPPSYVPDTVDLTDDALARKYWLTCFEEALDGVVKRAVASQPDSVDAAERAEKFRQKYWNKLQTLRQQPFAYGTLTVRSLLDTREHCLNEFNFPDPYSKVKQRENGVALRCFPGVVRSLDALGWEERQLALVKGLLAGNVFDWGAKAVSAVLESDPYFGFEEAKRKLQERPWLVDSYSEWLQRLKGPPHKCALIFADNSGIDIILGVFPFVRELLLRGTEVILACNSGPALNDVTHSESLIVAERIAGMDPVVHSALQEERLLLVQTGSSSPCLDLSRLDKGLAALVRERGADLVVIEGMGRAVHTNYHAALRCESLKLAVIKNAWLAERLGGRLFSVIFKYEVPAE
UniProt Q9NX04: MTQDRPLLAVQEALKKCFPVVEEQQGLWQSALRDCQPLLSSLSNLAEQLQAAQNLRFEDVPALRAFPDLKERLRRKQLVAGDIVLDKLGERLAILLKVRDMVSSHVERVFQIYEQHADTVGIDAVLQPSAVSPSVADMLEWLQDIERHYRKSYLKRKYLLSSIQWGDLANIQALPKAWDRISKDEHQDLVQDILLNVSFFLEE
UniProt Q9P1Y5: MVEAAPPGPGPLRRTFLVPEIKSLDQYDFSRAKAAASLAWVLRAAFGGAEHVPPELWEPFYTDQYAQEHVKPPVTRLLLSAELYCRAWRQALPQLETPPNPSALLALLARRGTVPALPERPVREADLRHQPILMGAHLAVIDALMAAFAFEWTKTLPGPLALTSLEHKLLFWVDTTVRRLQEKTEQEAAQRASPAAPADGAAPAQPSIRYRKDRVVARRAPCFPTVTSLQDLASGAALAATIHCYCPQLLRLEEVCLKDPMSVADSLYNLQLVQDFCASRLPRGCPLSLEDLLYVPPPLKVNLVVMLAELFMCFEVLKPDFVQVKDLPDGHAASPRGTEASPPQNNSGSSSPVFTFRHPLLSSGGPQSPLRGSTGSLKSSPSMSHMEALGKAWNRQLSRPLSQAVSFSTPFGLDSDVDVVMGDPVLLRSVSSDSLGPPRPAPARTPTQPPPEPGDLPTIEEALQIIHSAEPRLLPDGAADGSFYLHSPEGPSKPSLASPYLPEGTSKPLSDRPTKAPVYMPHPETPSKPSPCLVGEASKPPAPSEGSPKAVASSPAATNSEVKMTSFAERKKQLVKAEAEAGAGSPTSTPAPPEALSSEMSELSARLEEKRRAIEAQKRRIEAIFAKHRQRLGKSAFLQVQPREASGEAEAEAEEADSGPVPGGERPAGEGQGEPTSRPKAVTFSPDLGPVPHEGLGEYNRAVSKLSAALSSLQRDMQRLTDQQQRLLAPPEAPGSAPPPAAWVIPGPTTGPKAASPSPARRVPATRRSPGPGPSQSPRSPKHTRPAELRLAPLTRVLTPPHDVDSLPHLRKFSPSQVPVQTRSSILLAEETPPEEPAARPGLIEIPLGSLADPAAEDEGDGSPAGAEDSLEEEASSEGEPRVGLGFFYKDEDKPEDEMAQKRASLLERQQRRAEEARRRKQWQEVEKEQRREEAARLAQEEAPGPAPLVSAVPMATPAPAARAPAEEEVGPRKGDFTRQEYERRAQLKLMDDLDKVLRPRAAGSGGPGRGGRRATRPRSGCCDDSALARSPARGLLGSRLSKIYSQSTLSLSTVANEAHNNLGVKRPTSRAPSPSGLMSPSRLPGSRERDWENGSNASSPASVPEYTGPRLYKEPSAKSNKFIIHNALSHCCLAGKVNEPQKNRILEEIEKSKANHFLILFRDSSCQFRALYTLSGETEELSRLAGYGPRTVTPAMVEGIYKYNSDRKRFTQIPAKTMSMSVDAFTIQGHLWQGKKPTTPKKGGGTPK
UniProt Q9NZZ3: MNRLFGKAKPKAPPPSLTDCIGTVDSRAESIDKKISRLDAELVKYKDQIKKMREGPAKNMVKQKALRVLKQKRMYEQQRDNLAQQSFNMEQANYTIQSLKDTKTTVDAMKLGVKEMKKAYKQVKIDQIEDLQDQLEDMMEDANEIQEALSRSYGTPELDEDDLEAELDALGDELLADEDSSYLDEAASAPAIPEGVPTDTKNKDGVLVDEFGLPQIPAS
UniProt Q9NYY8: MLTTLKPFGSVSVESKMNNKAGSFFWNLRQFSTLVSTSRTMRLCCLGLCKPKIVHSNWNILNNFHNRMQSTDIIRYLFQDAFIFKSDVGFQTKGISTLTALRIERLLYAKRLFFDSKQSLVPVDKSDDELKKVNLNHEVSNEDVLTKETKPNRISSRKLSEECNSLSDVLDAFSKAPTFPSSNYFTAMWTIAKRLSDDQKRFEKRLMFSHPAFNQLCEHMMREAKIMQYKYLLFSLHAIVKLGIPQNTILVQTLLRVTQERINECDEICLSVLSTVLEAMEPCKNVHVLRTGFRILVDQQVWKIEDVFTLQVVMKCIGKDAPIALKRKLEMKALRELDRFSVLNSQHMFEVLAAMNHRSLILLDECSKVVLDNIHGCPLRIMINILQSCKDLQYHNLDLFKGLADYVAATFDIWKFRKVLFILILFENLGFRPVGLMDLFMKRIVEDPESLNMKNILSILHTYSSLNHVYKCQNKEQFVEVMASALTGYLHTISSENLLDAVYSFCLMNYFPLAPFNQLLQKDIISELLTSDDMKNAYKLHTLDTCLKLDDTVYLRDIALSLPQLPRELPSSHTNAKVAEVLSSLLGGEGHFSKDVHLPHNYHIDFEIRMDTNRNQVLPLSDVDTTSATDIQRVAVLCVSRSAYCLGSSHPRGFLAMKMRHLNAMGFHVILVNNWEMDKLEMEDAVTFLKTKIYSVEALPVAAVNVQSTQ
UniProt Q9NQX3: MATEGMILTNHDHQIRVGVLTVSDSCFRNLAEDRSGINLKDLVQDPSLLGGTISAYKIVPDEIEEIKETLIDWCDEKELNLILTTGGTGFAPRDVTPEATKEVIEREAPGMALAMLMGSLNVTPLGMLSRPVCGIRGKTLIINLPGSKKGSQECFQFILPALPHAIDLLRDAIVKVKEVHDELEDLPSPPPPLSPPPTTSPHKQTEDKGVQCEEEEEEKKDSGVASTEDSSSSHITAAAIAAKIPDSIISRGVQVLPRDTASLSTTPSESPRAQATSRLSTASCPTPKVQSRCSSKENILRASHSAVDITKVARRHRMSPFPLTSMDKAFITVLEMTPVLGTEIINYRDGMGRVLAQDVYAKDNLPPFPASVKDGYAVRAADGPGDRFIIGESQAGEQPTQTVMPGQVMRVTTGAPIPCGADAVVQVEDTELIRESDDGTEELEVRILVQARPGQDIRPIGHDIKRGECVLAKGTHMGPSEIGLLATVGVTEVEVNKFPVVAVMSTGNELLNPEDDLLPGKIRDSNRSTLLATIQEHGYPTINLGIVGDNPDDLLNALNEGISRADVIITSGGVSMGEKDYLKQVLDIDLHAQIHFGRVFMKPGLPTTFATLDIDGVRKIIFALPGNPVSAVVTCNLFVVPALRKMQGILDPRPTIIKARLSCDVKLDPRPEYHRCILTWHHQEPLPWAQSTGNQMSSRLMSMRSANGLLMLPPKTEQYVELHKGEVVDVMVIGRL
UniProt Q9NQT5, whole entry: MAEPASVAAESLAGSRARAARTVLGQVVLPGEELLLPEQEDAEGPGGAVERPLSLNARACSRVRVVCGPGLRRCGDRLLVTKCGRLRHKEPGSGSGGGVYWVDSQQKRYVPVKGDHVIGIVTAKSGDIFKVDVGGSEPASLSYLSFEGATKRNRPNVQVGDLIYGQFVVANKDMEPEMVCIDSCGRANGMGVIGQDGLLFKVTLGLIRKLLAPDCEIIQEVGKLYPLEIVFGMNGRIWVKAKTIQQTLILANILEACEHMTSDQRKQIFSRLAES

Compound: Nc1ncnc2c1ncn2[C@@H]1O[C@H](COP(=O)(O)OP(=O)(O)NP(=O)(O)O)[C@@H](O)[C@H]1O [adenylyl imidodiphosphate]
Assay: NP40-soluble protein abundance relative to vehicle (solubility fold change) (ratio); higher = more soluble protein in presence of AMP-PNP
Method in brief: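 Crude Jurkat lysate, prepared by Dounce homogenisation, was exposed to eight concentrations from 0.1 to 10 mM for 10 min at room temperature and then 3 min at 37 °C. Solubilisation used 0.8% NP40 with benzonase for 60 min at 4 °C, followed by ultracentrifugation and TMT labelling of the supernatant for LC-MS/MS. After vsn normalisation of intensities, each value is the fold change against the detergent-processed vehicle within each replicate, across three independent experiments.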

Target	NP40-soluble protein abundance (concentration: 1mM)	NP40-soluble protein abundance (concentration: 2mM)	NP40-soluble protein abundance (concentration: 4mM)	NP40-soluble protein abundance (concentration: 6mM)	NP40-soluble protein abundance (concentration: 8mM)	NP40-soluble protein abundance (concentration: 10mM)
MPP6 (UniProt Q9NZW5)	1.01 ± 0.025	0.972 ± 0.059	1 ± 0.027	0.968 ± 0.021	0.965 ± 0.019	0.955 ± 0.026
UniProt Q9NSG2 and related entries	0.991 ± 0.028	0.991 ± 0.015	0.993 ± 0.011	0.955 ± 0.022	0.964 ± 0.031	0.968 ± 0.015
UniProt Q9NSI2 and related entries	0.9952 ± 0.0042	0.9892 ± 0.0017	0.9743 ± 0.0093	0.978 ± 0.028	0.978 ± 0.016	0.972 ± 0.028
UniProt Q9NZ09 and related entries	0.97 ± 0.013	1.05 ± 0.054	0.993 ± 0.02	0.987 ± 0.034	0.964 ± 0.052	0.974 ± 0.059
CCDC88C (UniProt Q9P219)	0.974 ± 0.012	1.02 ± 0.02	1.01 ± 0.079	0.971 ± 0.11	0.88 ± 0.016	0.897 ± 0.055
RPRD1B (UniProt Q9NQG5)	0.998 ± 0.055	1.08 ± 0.039	1.03 ± 0.087	0.95 ± 0.04	0.984 ± 0.034	0.86 ± 0.1
DDX18 (UniProt Q9NVP1)	1.03 ± 0.045	1.03 ± 0.013	1.16 ± 0.046	1.24 ± 0.075	1.35 ± 0.12	1.43 ± 0.15
TBC1D13 (UniProt Q9NVG8)	0.991 ± 0.016	0.96 ± 0.026	0.995 ± 0.044	0.925 ± 0.018	0.96 ± 0.015	0.921 ± 0.014
UniProt Q9NUV9 and related entries	1.08 ± 0.023	1.06 ± 0.019	1.02 ± 0.039	1.02 ± 0.068	1.02 ± 0.06	1.03 ± 0.043
MDN1 (UniProt Q9NU22)	0.974 ± 0.088	0.946 ± 0.15	1 ± 0.1	0.97 ± 0.091	0.978 ± 0.092	0.98 ± 0.1
UniProt Q9NVR5	0.996 ± 0.025	1.02 ± 0.04	0.965 ± 0.022	0.981 ± 0.028	0.968 ± 0.036	0.96 ± 0.059
UVRAG (UniProt Q9P2Y5)	0.975 ± 0.013	0.936 ± 0.046	0.984 ± 0.037	0.983 ± 0.031	1.01 ± 0.043	0.97 ± 0.038
UniProt Q9P0U3 and related entries	0.961 ± 0.031	0.895 ± 0.024	0.905 ± 0.018	1.03 ± 0.097	1.03 ± 0.027	0.961 ± 0.041
UniProt Q9NUB1 and related entries	0.948 ± 0.039	0.882 ± 0.081	0.955 ± 0.02	0.955 ± 0.054	0.984 ± 0.037	0.944 ± 0.048
PPP4R2 (UniProt Q9NY27)	1.07 ± 0.04	1.06 ± 0.027	1.08 ± 0.015	1.054 ± 0.01	1.06 ± 0.019	1.07 ± 0.037
HIF1AN (UniProt Q9NWT6)	1.02 ± 0.018	0.981 ± 0.043	1 ± 0.027	0.973 ± 0.038	1 ± 0.011	0.964 ± 0.027
UniProt Q9NUL5 and related entries	1.07 ± 0.029	1.1 ± 0.13	1.07 ± 0.011	1.03 ± 0.033	1.07 ± 0.019	1.03 ± 0.026
UniProt Q9NVH2 and related entries	0.997 ± 0.028	0.956 ± 0.059	1.03 ± 0.023	1.05 ± 0.036	1.06 ± 0.062	1.07 ± 0.063
ARMC1 (UniProt Q9NVT9)	0.998 ± 0.039	1.03 ± 0.077	0.984 ± 0.032	1.03 ± 0.079	1.03 ± 0.068	1.04 ± 0.094
C9orf78 (UniProt Q9NZ63)	0.999 ± 0.047	1.03 ± 0.038	0.982 ± 0.055	0.971 ± 0.036	0.966 ± 0.034	0.939 ± 0.078

Exported with each value named: entries from further up
UniProt Q9NSG2 and related entries
  NP40-soluble protein abundance (concentration: 1mM): 0.991 ± 0.028; NP40-soluble protein abundance (concentration: 2mM): 0.991 ± 0.015; NP40-soluble protein abundance (concentration: 4mM): 0.993 ± 0.011; NP40-soluble protein abundance (concentration: 6mM): 0.955 ± 0.022; NP40-soluble protein abundance (concentration: 8mM): 0.964 ± 0.031; NP40-soluble protein abundance (concentration: 10mM): 0.968 ± 0.015
UniProt Q9NSI2 and related entries
  NP40-soluble protein abundance (concentration: 1mM): 0.9952 ± 0.0042; NP40-soluble protein abundance (concentration: 2mM): 0.9892 ± 0.0017; NP40-soluble protein abundance (concentration: 4mM): 0.9743 ± 0.0093; NP40-soluble protein abundance (concentration: 6mM): 0.978 ± 0.028; NP40-soluble protein abundance (concentration: 8mM): 0.978 ± 0.016; NP40-soluble protein abundance (concentration: 10mM): 0.972 ± 0.028

More records:

Target	NP40-soluble protein abundance (concentration: 1mM)	NP40-soluble protein abundance (concentration: 2mM)	NP40-soluble protein abundance (concentration: 4mM)	NP40-soluble protein abundance (concentration: 6mM)	NP40-soluble protein abundance (concentration: 8mM)	NP40-soluble protein abundance (concentration: 10mM)
MRPL40 (UniProt Q9NQ50)	0.977 ± 0.082	1.05 ± 0.057	0.98 ± 0.064	0.943 ± 0.11	0.957 ± 0.094	0.957 ± 0.083
UniProt Q9P2K3-3|Q9P2K3-4	0.993 ± 0.05	1.03 ± 0.045	0.985 ± 0.047	1 ± 0.066	0.982 ± 0.034	1.01 ± 0.062
UniProt Q9P287 and related entries	1.02 ± 0.016	1.009 ± 0.0091	1.03 ± 0.038	1.03 ± 0.042	1.02 ± 0.054	1.03 ± 0.056
UniProt Q9NX07 and related entries	0.971 ± 0.035	0.961 ± 0.042	0.984 ± 0.066	0.957 ± 0.035	0.937 ± 0.032	0.95 ± 0.065
MIOS (UniProt Q9NXC5)	0.987 ± 0.01	0.974 ± 0.028	0.985 ± 0.035	1.014 ± 0.0037	1.05 ± 0.023	1.07 ± 0.057
ARGLU1 (UniProt Q9NWB6)	1.06 ± 0.045	1.13 ± 0.049	1.1 ± 0.043	1.15 ± 0.04	1.16 ± 0.021	1.3 ± 0.11
THG1L (UniProt Q9NWX6)	1 ± 0.025	0.991 ± 0.033	1 ± 0.048	0.9818 ± 0.0056	0.9903 ± 0.0031	0.993 ± 0.021
GSKIP (UniProt Q9P0R6)	0.957 ± 0.014	1.01 ± 0.046	0.99 ± 0.024	0.961 ± 0.02	0.9375 ± 0.0089	0.8932 ± 0.0059
UniProt Q9NUP9	1.017 ± 0.0065	1.02 ± 0.022	0.998 ± 0.033	0.945 ± 0.028	0.974 ± 0.024	0.916 ± 0.033
PANK4 (UniProt Q9NVE7)	0.992 ± 0.029	0.98 ± 0.066	1.01 ± 0.039	0.984 ± 0.026	1 ± 0.052	0.981 ± 0.041
UniProt Q9NX04 and related entries	1.017 ± 0.0076	0.997 ± 0.048	1.08 ± 0.014	1.14 ± 0.02	1.14 ± 0.046	1.11 ± 0.037
UniProt Q9P1Y5 and related entries	0.968 ± 0.029	0.966 ± 0.068	0.935 ± 0.065	0.943 ± 0.058	0.96 ± 0.041	0.925 ± 0.066
IRAK4 (UniProt Q9NWZ3)	1.01 ± 0.041	0.975 ± 0.076	0.977 ± 0.046	0.986 ± 0.056	0.969 ± 0.071	0.96 ± 0.094
HDAC6 (UniProt Q9UBN7)	1.02 ± 0.022	1.01 ± 0.019	1 ± 0.045	0.9738 ± 0.0083	0.978 ± 0.017	0.972 ± 0.044
UniProt Q9P0K8 and related entries	0.966 ± 0.05	1 ± 0.038	0.956 ± 0.031	0.973 ± 0.044	0.962 ± 0.039	0.959 ± 0.033
UniProt Q9P1W8 and related entries	0.9928 ± 0.0047	1.04 ± 0.041	1.02 ± 0.018	1.0109 ± 0.00039	1.0171 ± 0.00063	1.024 ± 0.0042
UniProt Q9P032	0.976 ± 0.082	1.03 ± 0.052	0.945 ± 0.09	0.921 ± 0.039	0.924 ± 0.041	0.89 ± 0.046
UniProt Q9NW64	1.1 ± 0.026	1.11 ± 0.025	1.12 ± 0.032	1.14 ± 0.032	1.18 ± 0.02	1.18 ± 0.029
TMEM160 (UniProt Q9NX00)	1 ± 0.039	1.02 ± 0.049	0.986 ± 0.025	1.02 ± 0.034	1.02 ± 0.028	1.01 ± 0.035
PDP2 (UniProt Q9P2J9)	0.99 ± 0.049	0.971 ± 0.021	0.947 ± 0.046	0.968 ± 0.01	0.964 ± 0.02	0.956 ± 0.024

Target	NP40-soluble protein abundance (concentration: 1mM)	NP40-soluble protein abundance (concentration: 2mM)	NP40-soluble protein abundance (concentration: 4mM)	NP40-soluble protein abundance (concentration: 6mM)	NP40-soluble protein abundance (concentration: 8mM)	NP40-soluble protein abundance (concentration: 10mM)
LYAR (UniProt Q9NX58)	1.04 ± 0.049	1.13 ± 0.054	1.07 ± 0.097	1.12 ± 0.093	1.1 ± 0.073	1.18 ± 0.14
UniProt Q9NRY2	0.996 ± 0.018	0.9986 ± 0.0012	0.98 ± 0.02	1.008 ± 0.0047	1.011 ± 0.0053	1.007 ± 0.0039
UniProt Q9NUM4 and related entries	0.973 ± 0.031	0.949 ± 0.032	0.992 ± 0.022	0.9677 ± 0.0052	0.967 ± 0.029	0.923 ± 0.04
CHMP5 (UniProt Q9NZZ3)	0.935 ± 0.088	0.953 ± 0.083	0.835 ± 0.044	0.836 ± 0.11	0.89 ± 0.024	0.874 ± 0.055
MRPL15 (UniProt Q9P015)	0.953 ± 0.1	0.95 ± 0.057	0.958 ± 0.12	0.95 ± 0.14	0.96 ± 0.13	0.962 ± 0.21
FASTKD2 (UniProt Q9NYY8)	1.013 ± 0.0076	0.999 ± 0.038	0.963 ± 0.014	0.945 ± 0.031	0.953 ± 0.016	0.938 ± 0.025
UniProt Q9NPL8	0.968 ± 0.015	0.93 ± 0.016	0.972 ± 0.051	0.998 ± 0.011	0.975 ± 0.018	0.953 ± 0.029
TERF2IP (UniProt Q9NYB0)	1.02 ± 0.016	1.07 ± 0.05	1.03 ± 0.031	1.02 ± 0.015	1 ± 0.012	1.02 ± 0.03
FAM120C (UniProt Q9NX05)	1.01 ± 0.047	1.02 ± 0.046	1.01 ± 0.061	1 ± 0.076	1.02 ± 0.08	1.03 ± 0.06
FAM118A (UniProt Q9NWS6)	0.992 ± 0.012	1.003 ± 0.0048	1 ± 0.023	1 ± 0.012	0.998 ± 0.048	0.964 ± 0.039
PSMC3IP (UniProt Q9P2W1)	1.02 ± 0.025	1.06 ± 0.063	0.992 ± 0.03	1 ± 0.03	1 ± 0.021	0.988 ± 0.068
UniProt Q9P0J1 and related entries	0.991 ± 0.031	0.952 ± 0.085	0.972 ± 0.026	0.957 ± 0.036	0.944 ± 0.043	0.936 ± 0.028
UniProt Q9P107 and related entries	1.02 ± 0.019	1.09 ± 0.11	1.04 ± 0.025	0.999 ± 0.022	0.965 ± 0.018	0.996 ± 0.035
UniProt Q9NXA8 and related entries	1 ± 0.032	0.997 ± 0.028	1.02 ± 0.023	1.01 ± 0.011	0.984 ± 0.013	1 ± 0.034
UniProt Q9NQX3 and related entries	1.01 ± 0.021	1.03 ± 0.014	0.986 ± 0.016	0.962 ± 0.04	0.945 ± 0.031	0.961 ± 0.034
SIPA1L2 (UniProt Q9P2F8)	0.994 ± 0.067	1.029 ± 0.0026	0.967 ± 0.029	0.962 ± 0.12	0.9293 ± 0.002	0.912 ± 0.064
ZNFX1 (UniProt Q9P2E3)	1.01 ± 0.022	0.985 ± 0.041	0.976 ± 0.022	0.9802 ± 0.0043	0.984 ± 0.011	0.9717 ± 0.0071
UniProt Q9NY93 and related entries	1.014 ± 0.0045	1.03 ± 0.025	1.01 ± 0.018	0.978 ± 0.015	0.962 ± 0.042	0.995 ± 0.03
EXOSC3 (UniProt Q9NQT5)	1.07 ± 0.011	1.062 ± 0.0032	1.11 ± 0.053	1.15 ± 0.056	1.15 ± 0.085	1.2 ± 0.16
GDE1 (UniProt Q9NZC3)	1.01 ± 0.043	1.02 ± 0.034	1.01 ± 0.03	1.01 ± 0.08	0.995 ± 0.05	1.01 ± 0.06
